Source: the supplement of paper PMC8728848
The other results are listed elsewhere or left out.

What was measured:
Experiment in all cases: glycan array binding signal (z-score within array); higher = stronger binding
Conditions in all cases: glycan notation: IUPAC condensed, linker removed
[1] = molecular target: Gal(b1-4)Glc
How it was run: (§1)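 Glycan array data were curated from 3228 arrays in the Consortium for Functional Glycomics database and kept only where the protein sequence was available. Glycan names were converted to IUPAC-condensed notation, and columns mapping to the same glycan were averaged. The binding signal is a within-array Z-score, averaged across arrays of the same protein sequence at different concentrations or buffers and across linkers. Negative Z-scores can be read as non-binding.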

[2] = molecular target: Gal(b1-4)Glc6S
How it was run: as §1

[3] = molecular target: Gal(b1-4)GlcNAc
How it was run: as §1

[4] = molecular target: Gal(b1-4)GlcNAc(a1-6)Gal(b1-4)GlcNAc
How it was run: as §1

[5] = molecular target: Gal(b1-4)GlcNAc(b1-2)Man
How it was run: as §1

[6] = molecular target: Gal(b1-4)GlcNAc(b1-2)Man(a1-3)Man(b1-4)GlcNAc(b1-4)GlcNAc
How it was run: as §1

[7] = molecular target: Gal(b1-4)GlcNAc(b1-2)Man(a1-3)[Gal(b1-4)GlcNAc(b1-2)Man(a1-6)]Man(b1-4)GlcNAc(b1-4)GlcNAc
How it was run: as §1

[8] = molecular target: Gal(b1-4)GlcNAc(b1-2)Man(a1-3)[Gal(b1-4)GlcNAc(b1-2)Man(a1-6)]Man(b1-4)GlcNAc(b1-4)[Fuc(a1-6)]GlcNAc
How it was run: as §1

[9] = molecular target: Gal(b1-4)GlcNAc(b1-2)Man(a1-3)[Gal(b1-4)GlcNAc(b1-2)Man(a1-6)][Gal(b1-4)GlcNAc(b1-4)]Man(b1-4)GlcNAc(b1-4)[Fuc(a1-6)]GlcNAc
How it was run: as §1

[10] = molecular target: Gal(b1-4)GlcNAc(b1-2)Man(a1-3)[Gal(b1-4)GlcNAc(b1-2)Man(a1-6)][GlcNAc(b1-4)]Man(b1-4)GlcNAc(b1-4)[Fuc(a1-6)]GlcNAc
How it was run: as §1

[11] = molecular target: Gal(b1-4)GlcNAc(b1-2)Man(a1-3)[GlcNAc(b1-2)Man(a1-6)]Man(b1-4)GlcNAc(b1-4)GlcNAc
How it was run: as §1

[12] = molecular target: Gal(b1-4)GlcNAc(b1-2)Man(a1-3)[GlcNAc(b1-4)][Gal(b1-4)GlcNAc(b1-2)Man(a1-6)]Man(b1-4)GlcNAc(b1-4)GlcNAc
How it was run: as §1

[13] = molecular target: Gal(b1-4)GlcNAc(b1-2)Man(a1-3)[Man(a1-6)]Man(b1-4)GlcNAc(b1-4)GlcNAc
How it was run: as §1

[14] = molecular target: Gal(b1-4)GlcNAc(b1-2)Man(a1-6)Man(b1-4)GlcNAc(b1-4)GlcNAc
How it was run: as §1

[15] = molecular target: Gal(b1-4)GlcNAc(b1-2)Man(a1-6)[GlcNAc(b1-2)Man(a1-3)]Man(b1-4)GlcNAc(b1-4)GlcNAc
How it was run: as §1

[16] = molecular target: Gal(b1-4)GlcNAc(b1-2)Man(a1-6)[Man(a1-3)]Man(b1-4)GlcNAc(b1-4)GlcNAc
How it was run: as §1

[17] = molecular target: Gal(b1-4)GlcNAc(b1-2)[Gal(b1-4)GlcNAc(b1-4)]Man(a1-3)[Gal(b1-4)GlcNAc(b1-2)Man(a1-6)]Man(b1-4)GlcNAc(b1-4)GlcNAc
How it was run: as §1

[18] = molecular target: Gal(b1-4)GlcNAc(b1-2)[Gal(b1-4)GlcNAc(b1-4)]Man(a1-3)[Gal(b1-4)GlcNAc(b1-2)[Gal(b1-4)GlcNAc(b1-6)]Man(a1-6)]Man(b1-4)GlcNAc(b1-4)GlcNAc
How it was run: as §1

[19] = molecular target: Gal(b1-4)GlcNAc(b1-2)[Gal(b1-4)GlcNAc(b1-4)]Man(a1-3)[GlcNAc(b1-4)][Gal(b1-4)GlcNAc(b1-2)Man(a1-6)]Man(b1-4)GlcNAc(b1-4)GlcNAc
How it was run: as §1

[20] = molecular target: Gal(b1-4)GlcNAc(b1-2)[Gal(b1-4)GlcNAc(b1-4)]Man(a1-3)[GlcNAc(b1-4)][Gal(b1-4)GlcNAc(b1-2)[Gal(b1-4)GlcNAc(b1-6)]Man(a1-6)]Man(b1-4)GlcNAc(b1-4)GlcNAc
How it was run: as §1

[21] = molecular target: Gal(b1-4)GlcNAc(b1-2)[Gal(b1-4)GlcNAc(b1-6)]Man(a1-6)[Gal(b1-4)GlcNAc(b1-2)Man(a1-3)]Man(b1-4)GlcNAc(b1-4)GlcNAc
How it was run: as §1

[22] = molecular target: Gal(b1-4)GlcNAc(b1-2)[Gal(b1-4)GlcNAc(b1-6)]Man(a1-6)[Gal(b1-4)GlcNAc(b1-2)Man(a1-3)]Man(b1-4)GlcNAc(b1-4)[Fuc(a1-6)]GlcNAc
How it was run: as §1

[23] = molecular target: Gal(b1-4)GlcNAc(b1-2)[Gal(b1-4)GlcNAc(b1-6)]Man(a1-6)[GlcNAc(b1-4)][Gal(b1-4)GlcNAc(b1-2)Man(a1-3)]Man(b1-4)GlcNAc(b1-4)GlcNAc
How it was run: as §1

[24] = molecular target: Gal(b1-4)GlcNAc(b1-2)[Gal(b1-4)GlcNAc(b1-6)]Man(a1-6)[GlcNAc(b1-4)][Gal(b1-4)GlcNAc(b1-2)[Gal(b1-4)GlcNAc(b1-4)]Man(a1-3)]Man(b1-4)GlcNAc(b1-4)[Fuc(a1-6)]GlcNAc
How it was run: as §1

[25] = molecular target: Gal(b1-4)GlcNAc(b1-3)Gal(b1-3)GalNAc
How it was run: as §1

[26] = molecular target: Gal(b1-4)GlcNAc(b1-3)Gal(b1-3)GlcNAc
How it was run: as §1

[27] = molecular target: Gal(b1-4)GlcNAc(b1-3)Gal(b1-4)Glc
How it was run: as §1

[28] = molecular target: Gal(b1-4)GlcNAc(b1-3)Gal(b1-4)GlcNAc
How it was run: as §1

[29] = molecular target: Gal(b1-4)GlcNAc(b1-3)Gal(b1-4)GlcNAc(b1-2)Man(a1-3)[Gal(b1-4)GlcNAc(b1-3)Gal(b1-4)GlcNAc(b1-2)Man(a1-6)]Man(b1-4)GlcNAc(b1-4)GlcNAc
How it was run: as §1

[30] = molecular target: Gal(b1-4)GlcNAc(b1-3)Gal(b1-4)GlcNAc(b1-2)Man(a1-3)[Gal(b1-4)GlcNAc(b1-3)Gal(b1-4)GlcNAc(b1-2)Man(a1-6)]Man(b1-4)GlcNAc(b1-4)[Fuc(a1-6)]GlcNAc
How it was run: as §1

B1: Protein L(A-C2) (Finegoldia magna), Q51912 (protein)
chain: ADEPIDLEKLEEKRDKENVGNLPKFDNEVKDGSENPMAKYPDFDDEASTRFETENNEFEEKKVVSDNFFDQSEHPFVENKEETPETPETDSEEEVTIKANLIFANGSTQTAEFKGTFEKATSEAYAYADTLKKDNGEYTVDVADKGYTLNIKFAGKEKTPEEPKEEVTIKANLIYADGKTQTAEFKGTFEEATAEAYRYADALKKDNGEYTVDVADKGYTLNIKFAGKEKTPEEPKEEVTIKANLIYADGKTQTAEFKGTFEEATAEAYRYADLLAKENGKYTVDVADKGYTLNIKFAGKEKTPEEPKEEVTIKANLIYADGKTQTAEFKGTFAEATAEAYRYADLLAKENGKYTADLEDGGYTINIRFAGKKVDEKPEEKEQVTIKENIYFEDGTVQTATFKGTFAEATAEAYRYADLLSKEHGKYTADLEDGGYTINIRFAGKEEPEETPEKPEVQDGYASYEEAEAAAKEALKNDDVNKSYTIRQGADGRYYYVLSPVEAEEEKPEAQNGYATYEEAEAAAKKALENDPINKSYSIRQGADGRYYYVLSPVEAE
B1 was tested, and the “glycan array binding signal (z-score)” value [1] was -0.043, the “glycan array binding signal (z-score)” value [2] was -0.431 and the “glycan array binding signal (z-score)” value [3] was -0.975. For the same binder, the “glycan array binding signal (z-score)” value [4] was -0.588, the “glycan array binding signal (z-score)” value [5] was -0.561 and the “glycan array binding signal (z-score)” value [6] was -0.596. The “glycan array binding signal (z-score)” value [7] was -0.233, the “glycan array binding signal (z-score)” value [8] was 0.813 and the “glycan array binding signal (z-score)” value [9] was -0.282. The “glycan array binding signal (z-score)” value [10] was -0.609, the “glycan array binding signal (z-score)” value [11] was 0.165 and the “glycan array binding signal (z-score)” value [12] was -0.797. The “glycan array binding signal (z-score)” value [13] was -1.12, the “glycan array binding signal (z-score)” value [14] was 0.105 and the “glycan array binding signal (z-score)” value [15] was -0.326. For the same binder, the “glycan array binding signal (z-score)” value [16] was -0.918, the “glycan array binding signal (z-score)” value [17] was 0.148 and the “glycan array binding signal (z-score)” value [18] was -0.987. For the same binder, the “glycan array binding signal (z-score)” value [19] was 1.09, the “glycan array binding signal (z-score)” value [20] was -0.468 and the “glycan array binding signal (z-score)” value [21] was -0.74. The “glycan array binding signal (z-score)” value [22] was 0.398, the “glycan array binding signal (z-score)” value [23] was -0.175 and the “glycan array binding signal (z-score)” value [24] was -0.497. For the same binder, the “glycan array binding signal (z-score)” value [25] was 0.897, the “glycan array binding signal (z-score)” value [26] was 0.036 and the “glycan array binding signal (z-score)” value [27] was -0.097. The “glycan array binding signal (z-score)” value [28] was -0.832, the “glycan array binding signal (z-score)” value [29] was 2.57 and the “glycan array binding signal (z-score)” value [30] was 0.357.
